# Data as given in paper PMC9679424, “The CARD8 T60 variant associates with NLRP1 and negatively regulates its activation” (Frontiers in Immunology, 2022).
# The chains behind the UniProt entries cited, without tags or fusion partners.
# UniProt Q9ULZ3: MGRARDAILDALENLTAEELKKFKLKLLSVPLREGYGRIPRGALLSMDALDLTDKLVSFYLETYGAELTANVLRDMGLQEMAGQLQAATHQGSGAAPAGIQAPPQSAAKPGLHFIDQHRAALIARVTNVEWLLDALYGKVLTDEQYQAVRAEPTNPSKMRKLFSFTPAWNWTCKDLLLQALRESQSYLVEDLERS
# These are yes or no findings as the source states them, for the method shown. Binding seen in cells or lysates may run through a third protein. Some results given as binding are weak or reduced against the parent protein; the word gives no strength. For part of these data: Where a sequence is shown, tags or fusion partners need not be part of it.
# T1: CARD8-T48-FLAG (human), Q9Y2G2
# T1 chain: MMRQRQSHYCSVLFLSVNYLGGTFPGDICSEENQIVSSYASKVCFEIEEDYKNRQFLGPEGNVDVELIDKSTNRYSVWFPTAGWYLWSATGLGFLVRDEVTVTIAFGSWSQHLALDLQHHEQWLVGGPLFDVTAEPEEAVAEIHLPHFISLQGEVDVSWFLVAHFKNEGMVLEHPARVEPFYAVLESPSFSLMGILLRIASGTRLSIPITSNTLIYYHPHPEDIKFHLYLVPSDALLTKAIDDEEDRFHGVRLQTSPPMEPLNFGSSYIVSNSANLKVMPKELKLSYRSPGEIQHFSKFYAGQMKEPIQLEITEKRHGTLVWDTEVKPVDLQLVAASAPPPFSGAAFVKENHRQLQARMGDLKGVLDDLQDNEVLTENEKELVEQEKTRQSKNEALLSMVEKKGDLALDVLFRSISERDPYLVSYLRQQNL
# T2: NLRP1-FLAG truncation mutant: FIIND domain (human) (UniProt Q9C000)
# T2 sequence: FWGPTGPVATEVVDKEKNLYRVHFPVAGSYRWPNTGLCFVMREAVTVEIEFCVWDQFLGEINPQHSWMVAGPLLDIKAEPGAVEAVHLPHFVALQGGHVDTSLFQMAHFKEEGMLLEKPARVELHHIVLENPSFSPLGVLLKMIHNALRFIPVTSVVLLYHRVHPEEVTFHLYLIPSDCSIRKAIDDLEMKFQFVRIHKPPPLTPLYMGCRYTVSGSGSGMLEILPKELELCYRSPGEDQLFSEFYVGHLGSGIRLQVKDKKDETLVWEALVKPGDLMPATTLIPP
# T3: NLRP1-FLAG truncation mutant: NACHT domain (human) (UniProt Q9C000)
# T3 sequence: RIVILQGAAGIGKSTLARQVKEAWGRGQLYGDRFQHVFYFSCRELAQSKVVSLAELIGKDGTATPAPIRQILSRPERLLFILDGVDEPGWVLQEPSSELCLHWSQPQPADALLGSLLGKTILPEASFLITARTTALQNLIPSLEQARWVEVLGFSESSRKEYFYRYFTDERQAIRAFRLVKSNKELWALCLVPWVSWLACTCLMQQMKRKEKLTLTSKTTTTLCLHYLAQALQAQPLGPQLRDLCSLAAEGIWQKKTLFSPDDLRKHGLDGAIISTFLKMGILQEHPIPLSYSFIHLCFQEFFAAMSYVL
# Tests used:
# CARD8-T60-Strep (human) = CARD8-T60-Strep (human) (UniProt Q9Y2G2); test: co-IP; HEK 293T cells transiently co-transfected, 28 hours; lysate (20 mM Tris-HCl pH 7.5, 100 mM KCl, 5 mM MgCl2, 0.3% NP-40); precipitation by the Strep tag of CARD8-T60-Strep (anti-Strep; Strep-Tactin gel) overnight at 4 °C; immunoblotting
# [1] = molecular target: T1, CARD8-T48-FLAG (human), Q9Y2G2; test: co-IP; HEK 293T cells transiently co-transfected, 28 hours; lysate (20 mM Tris-HCl pH 7.5, 100 mM KCl, 5 mM MgCl2, 0.3% NP-40) on anti-FLAG M2 agarose beads overnight at 4 °C; immunoblotting; conditions: remark: other sources report otherwise
# [2] = molecular target: CARD8-T48-Q152QA-FLAG (human) (UniProt Q9Y2G2); test: as above
# CARD8-T60-FLAG (human) = CARD8-T60-FLAG (human) (UniProt Q9Y2G2); test: as above
# [3] = molecular target: T2, NLRP1-FLAG truncation mutant: FIIND domain (human); test: as above
# [4] = molecular target: T3, NLRP1-FLAG truncation mutant: NACHT domain (human); test: as above
molecule,measurement,setting,value
ASC-FLAG (from UniProt Q9ULZ3 1-195),binding,CARD8-T60-Strep (human),no binding
"NLRP1-Strep, Q9C000-1 1-1473 (protein) MAGGAWGRLACYLEFLKKEELKEFQLLLANKAHSRSSSGETPAQPEKTSGMEVASYLVAQYGEQRAWDLALHTWEQMGLRSLCAQAQEGAGHSPSFPYSPSEPHLGSPSQPTSTAVLMPWIHELPAGCTQGSERRVLRQLPDTSGRRWREISASLLYQALPSSPDHESPSQESPNAPTSTAVLGSWGSPPQPSLAPREQEAPGTQWPLDETSGIYYTEIREREREKSEKGRPPWAAVVGTPPQAHTSLQPHHHPWEPSVRESLCSTWPWKNEDFNQKFTQLLLLQRPHPRSQDPLVKRSWPDYVEENRGHLIEIRDLFGPGLDTQEPRIVILQGAAGIGKSTLARQVKEAWGRGQLYGDRFQHVFYFSCRELAQSKVVSLAELIGKDGTATPAPIRQILSRPERLLFILDGVDEPGWVLQEPSSELCLHWSQPQPADALLGSLLGKTILPEASFLITARTTALQNLIPSLEQARWVEVLGFSESSRKEYFYRYFTDERQAIRAFRLVKSNKELWALCLVPWVSWLACTCLMQQMKRKEKLTLTSKTTTTLCLHYLAQALQAQPLGPQLRDLCSLAAEGIWQKKTLFSPDDLRKHGLDGAIISTFLKMGILQEHPIPLSYSFIHLCFQEFFAAMSYVLEDEKGRGKHSNCIIDLEKTLEAYGIHGLFGASTTRFLLGLLSDEGEREMENIFHCRLSQGRNLMQWVPSLQLLLQPHSLESLHCLYETRNKTFLTQVMAHFEEMGMCVETDMELLVCTFCIKFSRHVKKLQLIEGRQHRSTWSPTMVVLFRWVPVTDAYWQILFSVLKVTRNLKELDLSGNSLSHSAVKSLCKTLRRPRCLLETLRLAGCGLTAEDCKDLAFGLRANQTLTELDLSFNVLTDAGAKHLCQRLRQPSCKLQRLQLVSCGLTSDCCQDLASVLSASPSLKELDLQQNNLDDVGVRLLCEGLRHPACKLIRLGLDQTTLSDEMRQELRALEQEKPQLLIFSRRKPSVMTPTEGLDTGEMSNSTSSLKRQRLGSERAASHVAQANLKLLDVSKIFPIAEIAEESSPEVVPVELLCVPSPASQGDLHTKPLGTDDDFWGPTGPVATEVVDKEKNLYRVHFPVAGSYRWPNTGLCFVMREAVTVEIEFCVWDQFLGEINPQHSWMVAGPLLDIKAEPGAVEAVHLPHFVALQGGHVDTSLFQMAHFKEEGMLLEKPARVELHHIVLENPSFSPLGVLLKMIHNALRFIPVTSVVLLYHRVHPEEVTFHLYLIPSDCSIRKAIDDLEMKFQFVRIHKPPPLTPLYMGCRYTVSGSGSGMLEILPKELELCYRSPGEDQLFSEFYVGHLGSGIRLQVKDKKDETLVWEALVKPGDLMPATTLIPPARIAVPSPLDAPQLLHFVDQYREQLIARVTSVEVVLDKLHGQVLSQEQYERVLAENTRPSQMRKLFSLSQSWDRKCKDGLYQALKETHPHLIMELWEKGSKKGLLPLSS",binding,[1],binds
"NLRP1-Strep (protein, UniProt Q9C000-1 1-1473) MAGGAWGRLACYLEFLKKEELKEFQLLLANKAHSRSSSGETPAQPEKTSGMEVASYLVAQYGEQRAWDLALHTWEQMGLRSLCAQAQEGAGHSPSFPYSPSEPHLGSPSQPTSTAVLMPWIHELPAGCTQGSERRVLRQLPDTSGRRWREISASLLYQALPSSPDHESPSQESPNAPTSTAVLGSWGSPPQPSLAPREQEAPGTQWPLDETSGIYYTEIREREREKSEKGRPPWAAVVGTPPQAHTSLQPHHHPWEPSVRESLCSTWPWKNEDFNQKFTQLLLLQRPHPRSQDPLVKRSWPDYVEENRGHLIEIRDLFGPGLDTQEPRIVILQGAAGIGKSTLARQVKEAWGRGQLYGDRFQHVFYFSCRELAQSKVVSLAELIGKDGTATPAPIRQILSRPERLLFILDGVDEPGWVLQEPSSELCLHWSQPQPADALLGSLLGKTILPEASFLITARTTALQNLIPSLEQARWVEVLGFSESSRKEYFYRYFTDERQAIRAFRLVKSNKELWALCLVPWVSWLACTCLMQQMKRKEKLTLTSKTTTTLCLHYLAQALQAQPLGPQLRDLCSLAAEGIWQKKTLFSPDDLRKHGLDGAIISTFLKMGILQEHPIPLSYSFIHLCFQEFFAAMSYVLEDEKGRGKHSNCIIDLEKTLEAYGIHGLFGASTTRFLLGLLSDEGEREMENIFHCRLSQGRNLMQWVPSLQLLLQPHSLESLHCLYETRNKTFLTQVMAHFEEMGMCVETDMELLVCTFCIKFSRHVKKLQLIEGRQHRSTWSPTMVVLFRWVPVTDAYWQILFSVLKVTRNLKELDLSGNSLSHSAVKSLCKTLRRPRCLLETLRLAGCGLTAEDCKDLAFGLRANQTLTELDLSFNVLTDAGAKHLCQRLRQPSCKLQRLQLVSCGLTSDCCQDLASVLSASPSLKELDLQQNNLDDVGVRLLCEGLRHPACKLIRLGLDQTTLSDEMRQELRALEQEKPQLLIFSRRKPSVMTPTEGLDTGEMSNSTSSLKRQRLGSERAASHVAQANLKLLDVSKIFPIAEIAEESSPEVVPVELLCVPSPASQGDLHTKPLGTDDDFWGPTGPVATEVVDKEKNLYRVHFPVAGSYRWPNTGLCFVMREAVTVEIEFCVWDQFLGEINPQHSWMVAGPLLDIKAEPGAVEAVHLPHFVALQGGHVDTSLFQMAHFKEEGMLLEKPARVELHHIVLENPSFSPLGVLLKMIHNALRFIPVTSVVLLYHRVHPEEVTFHLYLIPSDCSIRKAIDDLEMKFQFVRIHKPPPLTPLYMGCRYTVSGSGSGMLEILPKELELCYRSPGEDQLFSEFYVGHLGSGIRLQVKDKKDETLVWEALVKPGDLMPATTLIPPARIAVPSPLDAPQLLHFVDQYREQLIARVTSVEVVLDKLHGQVLSQEQYERVLAENTRPSQMRKLFSLSQSWDRKCKDGLYQALKETHPHLIMELWEKGSKKGLLPLSS",binding,[2],binds
same,binding,CARD8-T60-FLAG (human),binds
"CARD8-T60-Strep (natural protein, human, UniProt Q9Y2G2-5 1-537, looked up, CARD8, T60 isoform, human, UniProt Q9Y2G2-5, full length; The host of the purified protein is told only as a mammalian expression system; also called CARD8-Strep; T60 isoform of CARD8; source: HEK 293T, transiently transfected, in lysate; also purified using mammalian protein expression system) MEKKECPEKSSSSEEELPRRDSGSSRNIDASKLIRLQGSRKLLVDNSIRELQYTKTGIFFQAEACVTNDTVYRELPCVSETLCDISHFFQEDDETEAEPLLFRAVPECQLSGGDIPSVSEEQESSEGQDSGDICSEENQIVSSYASKVCFEIEEDYKNRQFLGPEGNVDVELIDKSTNRYSVWFPTAGWYLWSATGLGFLVRDEVTVTIAFGSWSQHLALDLQHHEQWLVGGPLFDVTAEPEEAVAEIHLPHFISLQAGEVDVSWFLVAHFKNEGMVLEHPARVEPFYAVLESPSFSLMGILLRIASGTRLSIPITSNTLIYYHPHPEDIKFHLYLVPSDALLTKAIDDEEDRFHGVRLQTSPPMEPLNFGSSYIVSNSANLKVMPKELKLSYRSPGEIQHFSKFYAGQMKEPIQLEITEKRHGTLVWDTEVKPVDLQLVAASAPPPFSGAAFVKENHRQLQARMGDLKGVLDDLQDNEVLTENEKELVEQEKTRQSKNEALLSMVEKKGDLALDVLFRSISERDPYLVSYLRQQNL",binding,[3],binds
same,binding,[4],binds
